The assay concerns the target Flag-TRIM22-ΔRING (RING-finger domain deletion mutant of TRIM22) (UniProt Q8IYM9). Put plainly: co-IP; HEK293 cells transfected with Flag-TRIM22 and HA-IκBα constructs; IP lysis buffer with protease inhibitors; 200 µg lysate with anti-FLAG or anti-HA antibody overnight at 4 °C, Protein A/G magnetic beads 2 h at room temperature; western blot. A general note: A western blot detects proteins with antibodies after separation by electrophoresis.

Chains of the proteins cited; added tags and fusions are not shown. Lines headed by an entry give the natural chain unless they say otherwise; changes in a name come on top.
UniProt Q8IYM9: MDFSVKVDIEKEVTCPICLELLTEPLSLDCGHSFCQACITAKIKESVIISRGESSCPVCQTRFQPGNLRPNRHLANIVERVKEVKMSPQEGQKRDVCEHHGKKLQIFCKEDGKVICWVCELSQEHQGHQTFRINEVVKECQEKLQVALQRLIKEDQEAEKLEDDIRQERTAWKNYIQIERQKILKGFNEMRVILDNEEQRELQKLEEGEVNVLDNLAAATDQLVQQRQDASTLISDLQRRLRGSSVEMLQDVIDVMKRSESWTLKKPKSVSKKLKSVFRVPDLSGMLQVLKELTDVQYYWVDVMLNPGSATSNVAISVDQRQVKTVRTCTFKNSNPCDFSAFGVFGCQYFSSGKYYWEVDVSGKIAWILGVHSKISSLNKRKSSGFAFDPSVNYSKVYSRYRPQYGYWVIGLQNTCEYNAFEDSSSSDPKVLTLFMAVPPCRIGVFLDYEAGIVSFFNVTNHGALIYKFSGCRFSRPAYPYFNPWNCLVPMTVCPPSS
UniProt P25963: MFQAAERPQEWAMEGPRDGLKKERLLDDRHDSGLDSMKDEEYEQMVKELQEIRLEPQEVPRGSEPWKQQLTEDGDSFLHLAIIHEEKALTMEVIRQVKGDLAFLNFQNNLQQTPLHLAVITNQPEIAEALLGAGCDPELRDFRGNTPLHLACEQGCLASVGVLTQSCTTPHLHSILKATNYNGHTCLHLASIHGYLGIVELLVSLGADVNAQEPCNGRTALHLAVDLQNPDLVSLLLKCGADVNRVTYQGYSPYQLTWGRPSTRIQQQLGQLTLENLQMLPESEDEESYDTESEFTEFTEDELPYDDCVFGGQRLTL

Results are given in words; binding and its absence hold for the method and conditions named. In cells and extracts the contact can be indirect. Binding can be weak; no strength is given.

These results are taken from paper PMC7853150.

For the substance “HA-tagged IκBα (NF-κB inhibitor alpha) (from UniProt P25963 1-317)”, the binding result was “binds”.
